Data reported in patent US20080038374A1, “New Use” (Lipopeptide AB, priority 2004, published 2008).
At least one compound was matched to its structure with a doubt left.

Tested on: hCAP18 promoter
Experiment: Stimulation of the hCAP18 promoter at different concentrations (FIG. 4)
Type: cell-based, human
Conditions: tested at 1, 10, 100 and 1000 nM
Method: To assess whether physiological levels were sufficient to induce the stimulation of the hCAP18 promoter, the study was performed at the different concentrations 1, 10, 100 and 1000 nM of 1,25-(OH)2-D3 and 25-OH-D3 (FIG. 4). […] The physiologic serum concentration of 25-OH-vitamin D3 is between 20 nM and 125 nM, whereas the 1,25-(OH)2-D3 is present in pM concentration. A dosage form of a vitamin D compound for topical administration includes for instance about 1-100, preferably 5-50 μg vitamin D compound per gram composition.

Structure (SMILES): C=C1CC[C@H](O)C/C1=C/C=C1\CCC[C@]2(C)[C@@H]([C@H](C)CCCC(C)(C)O)CC[C@@H]12 [25-OH-D3, 25-hydroxy-cholecalciferol]
- concentration at which the highest activity was observed: 0.1 and 1.0 μM
